Assay results as given in publication doi:10.1101/2023.02.03.526835 (bioRxiv, 2023).
Like-named read-outs stand apart in the source and are kept apart here. These are yes or no findings as the source states them, for the method shown. Some binding calls cover weakened binding; strength is not graded here. For some assays here: Tags and fused reporters may be left off the sequences shown. Values belong to the molecule of their own block, whether it stands above or below them.

Chains of the proteins cited; added tags and fusions are not shown. Lines headed by an entry give the natural chain unless they say otherwise; changes in a name come on top.
UniProt P53224, whole entry, looked up, stated change not applied: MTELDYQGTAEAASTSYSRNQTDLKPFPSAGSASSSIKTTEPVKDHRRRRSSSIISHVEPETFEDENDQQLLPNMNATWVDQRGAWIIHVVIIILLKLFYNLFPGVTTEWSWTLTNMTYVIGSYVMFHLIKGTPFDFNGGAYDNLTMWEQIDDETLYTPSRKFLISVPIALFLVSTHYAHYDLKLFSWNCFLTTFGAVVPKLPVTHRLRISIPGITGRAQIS

Legend:
Assay in all cases: cryo-EM structure
[1] = target: T1, Lcb2 (S. cerevisiae) (UniProt P40970)
T1 sequence (chain, pyridoxal 5'-phosphate (PLP) as internal aldimine with K366): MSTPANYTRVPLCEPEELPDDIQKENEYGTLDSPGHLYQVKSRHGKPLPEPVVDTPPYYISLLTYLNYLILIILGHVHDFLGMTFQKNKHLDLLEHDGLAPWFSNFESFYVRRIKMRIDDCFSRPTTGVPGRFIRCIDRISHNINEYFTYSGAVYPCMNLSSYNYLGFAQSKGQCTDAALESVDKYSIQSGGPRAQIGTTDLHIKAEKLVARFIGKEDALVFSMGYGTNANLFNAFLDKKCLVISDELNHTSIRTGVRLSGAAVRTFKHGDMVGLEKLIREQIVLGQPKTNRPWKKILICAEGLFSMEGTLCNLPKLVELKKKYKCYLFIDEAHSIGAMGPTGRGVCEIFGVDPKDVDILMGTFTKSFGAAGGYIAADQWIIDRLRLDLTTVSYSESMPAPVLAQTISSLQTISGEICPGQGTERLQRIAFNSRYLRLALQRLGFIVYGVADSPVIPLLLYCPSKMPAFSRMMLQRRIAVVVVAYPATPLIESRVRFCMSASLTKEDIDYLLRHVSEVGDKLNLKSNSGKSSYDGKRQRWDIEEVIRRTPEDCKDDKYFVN

[2] = target: T2, Lcb1, internally 3xFLAG-tagged after P9 (S. cerevisiae) (UniProt P25045)
T2 sequence: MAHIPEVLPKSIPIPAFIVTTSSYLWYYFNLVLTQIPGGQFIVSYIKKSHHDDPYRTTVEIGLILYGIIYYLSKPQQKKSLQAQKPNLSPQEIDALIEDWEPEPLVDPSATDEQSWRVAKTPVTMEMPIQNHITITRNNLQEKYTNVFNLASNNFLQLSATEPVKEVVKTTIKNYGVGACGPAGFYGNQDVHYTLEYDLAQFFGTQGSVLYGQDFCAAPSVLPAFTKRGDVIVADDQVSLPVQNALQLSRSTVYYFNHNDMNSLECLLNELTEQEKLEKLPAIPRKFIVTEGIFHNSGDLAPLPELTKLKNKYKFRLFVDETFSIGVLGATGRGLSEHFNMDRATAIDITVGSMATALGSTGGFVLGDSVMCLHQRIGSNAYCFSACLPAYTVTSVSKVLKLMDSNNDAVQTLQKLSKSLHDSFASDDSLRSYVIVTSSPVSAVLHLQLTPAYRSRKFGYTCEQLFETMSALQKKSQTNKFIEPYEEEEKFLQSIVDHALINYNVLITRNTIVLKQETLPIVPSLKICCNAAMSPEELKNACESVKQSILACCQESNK

[3] = target: T2, Lcb1, internally 3xFLAG-tagged after P9 (S. cerevisiae); remark: listed apart in the source
[4] = target: T1, Lcb2 (S. cerevisiae); remark: listed apart in the source

Molecule: Orm1 non-phosphorylatable version (ORM1^AAA; S51A, S52A, S53A) (from UniProt P53224 1-222)
binding [1]: binds
binding [2]: binds

B2: Sac1, PI4P phosphatase (enzyme, UniProt P32368 1-623)
chain: MTGPIVYVQNADGIFFKLAEGKGTNDAVIHLANQDQGVRVLGAEEFPVQGEVVKIASLMGFIKLKLNRYAIIANTVEETGRFNGHVFYRVLQHSIVSTKFNSRIDSEEAEYIKLLELHLKNSTFYFSYTYDLTNSLQRNEKVGPAASWKTADERFFWNHYLTEDLRNFAHQDPRIDSFIQPVIYGYAKTVDAVLNATPIVLGLITRRSIFRAGTRYFRRGVDKDGNVGNFNETEQILLAENPESEKIHVFSFLQTRGSVPIYWAEINNLKYKPNLVLGENSLDATKKHFDQQKELYGDNYLVNLVNQKGHELPVKEGYESVVHALNDPKIHYVYFDFHHECRKMQWHRVKLLIDHLEKLGLSNEDFFHKVIDSNGNTVEIVNEQHSVVRTNCMDCLDRTNVVQSVLAQWVLQKEFESADVVATGSTWEDNAPLLTSYQNLWADNADAVSVAYSGTGALKTDFTRTGKRTRLGAFNDFLNSASRYYQNNWTDGPRQDSYDLFLGGFRPHTASIKSPFPDRRPVYIQLIPMIICAALTVLGATIFFPKDRFTSSKNLLYFAGASIVLALSTKFMFKNGIQFVNWPKLVDVGFLVVHQTHDKEQQFKGLKYAQSPKFSKPDPLKRD
binding [4]: binds

The next lines start with the values.

binding [3]: binds
B1: Lcb2 (enzyme, S. cerevisiae)
chain: MSTPANYTRVPLCEPEELPDDIQKENEYGTLDSPGHLYQVKSRHGKPLPEPVVDTPPYYISLLTYLNYLILIILGHVHDFLGMTFQKNKHLDLLEHDGLAPWFSNFESFYVRRIKMRIDDCFSRPTTGVPGRFIRCIDRISHNINEYFTYSGAVYPCMNLSSYNYLGFAQSKGQCTDAALESVDKYSIQSGGPRAQIGTTDLHIKAEKLVARFIGKEDALVFSMGYGTNANLFNAFLDKKCLVISDELNHTSIRTGVRLSGAAVRTFKHGDMVGLEKLIREQIVLGQPKTNRPWKKILICAEGLFSMEGTLCNLPKLVELKKKYKCYLFIDEAHSIGAMGPTGRGVCEIFGVDPKDVDILMGTFTKSFGAAGGYIAADQWIIDRLRLDLTTVSYSESMPAPVLAQTISSLQTISGEICPGQGTERLQRIAFNSRYLRLALQRLGFIVYGVADSPVIPLLLYCPSKMPAFSRMMLQRRIAVVVVAYPATPLIESRVRFCMSASLTKEDIDYLLRHVSEVGDKLNLKSNSGKSSYDGKRQRWDIEEVIRRTPEDCKDDKYFVN
modifications: pyridoxal 5'-phosphate (PLP) as internal aldimine with K366

binding [4]: binds
B3: Tsc3 (protein, UniProt Q3E790 1-80)
chain: MTQHKSSMVYIPTTKEAKRRNGKSEGILNTIEEVVEKLYWTYYIHLPFYLMASFDSFFLHVFFLTIFSLSFFGILKYCFL
